Reference: the supplement of paper PMC10849652
The other results are listed elsewhere or left out.

By UniProt entry, the sequences of proteins in these tests, tags left out. Where a name states a change or a piece, a line headed by the entry shows the natural chain unless it says otherwise.
UniProt P23677, whole entry, looked up: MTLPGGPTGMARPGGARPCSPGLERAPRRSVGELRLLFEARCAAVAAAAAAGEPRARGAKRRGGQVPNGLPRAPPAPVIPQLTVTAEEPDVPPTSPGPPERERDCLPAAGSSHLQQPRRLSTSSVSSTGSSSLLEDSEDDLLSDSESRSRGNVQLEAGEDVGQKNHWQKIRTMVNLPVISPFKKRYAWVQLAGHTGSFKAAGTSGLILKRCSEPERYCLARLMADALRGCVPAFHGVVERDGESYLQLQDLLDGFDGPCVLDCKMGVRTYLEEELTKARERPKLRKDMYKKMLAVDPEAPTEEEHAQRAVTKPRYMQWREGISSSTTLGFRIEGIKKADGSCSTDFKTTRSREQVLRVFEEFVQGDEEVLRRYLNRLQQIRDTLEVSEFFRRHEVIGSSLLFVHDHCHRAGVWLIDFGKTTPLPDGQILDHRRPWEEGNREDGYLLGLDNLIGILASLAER
UniProt Q9Y6Y0: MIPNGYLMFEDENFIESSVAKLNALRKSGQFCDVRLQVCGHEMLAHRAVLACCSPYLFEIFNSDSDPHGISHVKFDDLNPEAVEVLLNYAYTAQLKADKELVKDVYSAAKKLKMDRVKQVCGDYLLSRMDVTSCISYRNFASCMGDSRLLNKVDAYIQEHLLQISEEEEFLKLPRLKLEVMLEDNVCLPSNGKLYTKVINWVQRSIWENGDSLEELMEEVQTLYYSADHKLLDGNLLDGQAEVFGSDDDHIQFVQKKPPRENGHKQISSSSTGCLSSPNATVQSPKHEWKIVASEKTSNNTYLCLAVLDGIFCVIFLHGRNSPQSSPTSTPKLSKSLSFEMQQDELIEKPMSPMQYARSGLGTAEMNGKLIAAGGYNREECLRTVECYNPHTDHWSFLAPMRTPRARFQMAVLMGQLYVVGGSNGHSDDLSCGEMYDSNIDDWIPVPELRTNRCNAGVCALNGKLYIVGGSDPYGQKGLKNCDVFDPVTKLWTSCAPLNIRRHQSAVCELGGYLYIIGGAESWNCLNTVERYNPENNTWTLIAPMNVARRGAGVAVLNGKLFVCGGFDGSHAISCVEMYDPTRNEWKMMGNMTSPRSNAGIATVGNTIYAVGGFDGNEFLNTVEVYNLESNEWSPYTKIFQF
UniProt Q96AB3: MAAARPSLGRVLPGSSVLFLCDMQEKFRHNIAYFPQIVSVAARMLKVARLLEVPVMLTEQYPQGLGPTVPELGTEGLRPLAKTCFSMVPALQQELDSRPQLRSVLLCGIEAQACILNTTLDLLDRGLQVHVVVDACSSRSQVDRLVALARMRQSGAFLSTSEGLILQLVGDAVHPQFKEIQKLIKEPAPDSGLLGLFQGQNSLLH
UniProt Q9NXV2: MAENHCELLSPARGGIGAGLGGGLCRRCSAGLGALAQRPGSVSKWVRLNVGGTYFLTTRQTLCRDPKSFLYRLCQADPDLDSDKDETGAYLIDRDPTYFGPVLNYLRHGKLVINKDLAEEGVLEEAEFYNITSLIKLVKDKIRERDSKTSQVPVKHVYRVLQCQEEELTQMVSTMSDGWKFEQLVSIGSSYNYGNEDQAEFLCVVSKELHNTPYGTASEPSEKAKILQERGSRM
UniProt Q13572: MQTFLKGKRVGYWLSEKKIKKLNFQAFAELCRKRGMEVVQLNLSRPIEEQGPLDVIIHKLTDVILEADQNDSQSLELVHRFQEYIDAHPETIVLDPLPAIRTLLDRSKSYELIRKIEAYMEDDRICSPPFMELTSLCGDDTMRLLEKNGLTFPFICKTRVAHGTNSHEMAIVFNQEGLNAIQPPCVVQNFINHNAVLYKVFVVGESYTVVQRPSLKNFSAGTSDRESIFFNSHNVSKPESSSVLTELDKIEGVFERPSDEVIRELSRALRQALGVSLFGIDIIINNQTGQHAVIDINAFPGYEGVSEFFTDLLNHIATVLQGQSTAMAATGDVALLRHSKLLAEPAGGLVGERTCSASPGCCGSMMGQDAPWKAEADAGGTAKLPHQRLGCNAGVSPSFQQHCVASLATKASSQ
UniProt Q9NV88, whole entry, looked up: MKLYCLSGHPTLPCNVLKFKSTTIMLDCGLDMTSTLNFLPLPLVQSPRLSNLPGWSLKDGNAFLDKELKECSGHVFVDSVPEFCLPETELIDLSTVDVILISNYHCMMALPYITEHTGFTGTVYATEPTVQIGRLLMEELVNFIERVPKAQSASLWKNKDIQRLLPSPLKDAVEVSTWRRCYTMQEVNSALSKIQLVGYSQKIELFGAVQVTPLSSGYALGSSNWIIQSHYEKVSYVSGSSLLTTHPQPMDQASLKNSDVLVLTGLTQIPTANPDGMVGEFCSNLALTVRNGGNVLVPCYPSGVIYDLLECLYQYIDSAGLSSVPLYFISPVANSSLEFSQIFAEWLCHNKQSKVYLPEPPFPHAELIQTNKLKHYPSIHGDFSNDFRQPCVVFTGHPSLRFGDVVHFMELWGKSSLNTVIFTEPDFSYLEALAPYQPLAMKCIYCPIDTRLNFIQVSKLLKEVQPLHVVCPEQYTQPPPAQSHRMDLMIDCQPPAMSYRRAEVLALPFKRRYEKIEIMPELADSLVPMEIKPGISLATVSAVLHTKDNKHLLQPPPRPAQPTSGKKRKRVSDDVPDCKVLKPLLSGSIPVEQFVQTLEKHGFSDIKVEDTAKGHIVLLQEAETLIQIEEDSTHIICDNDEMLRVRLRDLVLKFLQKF
UniProt Q9NVX7: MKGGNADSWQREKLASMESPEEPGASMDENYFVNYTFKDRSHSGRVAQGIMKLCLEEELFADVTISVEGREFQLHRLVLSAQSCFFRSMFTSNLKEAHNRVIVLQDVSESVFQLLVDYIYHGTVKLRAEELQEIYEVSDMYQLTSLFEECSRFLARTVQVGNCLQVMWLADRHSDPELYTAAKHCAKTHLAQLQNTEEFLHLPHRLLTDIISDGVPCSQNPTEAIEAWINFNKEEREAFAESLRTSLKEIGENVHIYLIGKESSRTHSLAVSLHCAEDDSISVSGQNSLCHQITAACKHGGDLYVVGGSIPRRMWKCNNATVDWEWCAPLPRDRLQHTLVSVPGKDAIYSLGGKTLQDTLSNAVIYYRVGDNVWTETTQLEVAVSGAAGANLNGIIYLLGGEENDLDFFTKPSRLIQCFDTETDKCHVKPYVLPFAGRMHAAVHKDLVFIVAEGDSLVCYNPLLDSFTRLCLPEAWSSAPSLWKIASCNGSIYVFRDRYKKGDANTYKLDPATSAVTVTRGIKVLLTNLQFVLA
UniProt Q9NZM3: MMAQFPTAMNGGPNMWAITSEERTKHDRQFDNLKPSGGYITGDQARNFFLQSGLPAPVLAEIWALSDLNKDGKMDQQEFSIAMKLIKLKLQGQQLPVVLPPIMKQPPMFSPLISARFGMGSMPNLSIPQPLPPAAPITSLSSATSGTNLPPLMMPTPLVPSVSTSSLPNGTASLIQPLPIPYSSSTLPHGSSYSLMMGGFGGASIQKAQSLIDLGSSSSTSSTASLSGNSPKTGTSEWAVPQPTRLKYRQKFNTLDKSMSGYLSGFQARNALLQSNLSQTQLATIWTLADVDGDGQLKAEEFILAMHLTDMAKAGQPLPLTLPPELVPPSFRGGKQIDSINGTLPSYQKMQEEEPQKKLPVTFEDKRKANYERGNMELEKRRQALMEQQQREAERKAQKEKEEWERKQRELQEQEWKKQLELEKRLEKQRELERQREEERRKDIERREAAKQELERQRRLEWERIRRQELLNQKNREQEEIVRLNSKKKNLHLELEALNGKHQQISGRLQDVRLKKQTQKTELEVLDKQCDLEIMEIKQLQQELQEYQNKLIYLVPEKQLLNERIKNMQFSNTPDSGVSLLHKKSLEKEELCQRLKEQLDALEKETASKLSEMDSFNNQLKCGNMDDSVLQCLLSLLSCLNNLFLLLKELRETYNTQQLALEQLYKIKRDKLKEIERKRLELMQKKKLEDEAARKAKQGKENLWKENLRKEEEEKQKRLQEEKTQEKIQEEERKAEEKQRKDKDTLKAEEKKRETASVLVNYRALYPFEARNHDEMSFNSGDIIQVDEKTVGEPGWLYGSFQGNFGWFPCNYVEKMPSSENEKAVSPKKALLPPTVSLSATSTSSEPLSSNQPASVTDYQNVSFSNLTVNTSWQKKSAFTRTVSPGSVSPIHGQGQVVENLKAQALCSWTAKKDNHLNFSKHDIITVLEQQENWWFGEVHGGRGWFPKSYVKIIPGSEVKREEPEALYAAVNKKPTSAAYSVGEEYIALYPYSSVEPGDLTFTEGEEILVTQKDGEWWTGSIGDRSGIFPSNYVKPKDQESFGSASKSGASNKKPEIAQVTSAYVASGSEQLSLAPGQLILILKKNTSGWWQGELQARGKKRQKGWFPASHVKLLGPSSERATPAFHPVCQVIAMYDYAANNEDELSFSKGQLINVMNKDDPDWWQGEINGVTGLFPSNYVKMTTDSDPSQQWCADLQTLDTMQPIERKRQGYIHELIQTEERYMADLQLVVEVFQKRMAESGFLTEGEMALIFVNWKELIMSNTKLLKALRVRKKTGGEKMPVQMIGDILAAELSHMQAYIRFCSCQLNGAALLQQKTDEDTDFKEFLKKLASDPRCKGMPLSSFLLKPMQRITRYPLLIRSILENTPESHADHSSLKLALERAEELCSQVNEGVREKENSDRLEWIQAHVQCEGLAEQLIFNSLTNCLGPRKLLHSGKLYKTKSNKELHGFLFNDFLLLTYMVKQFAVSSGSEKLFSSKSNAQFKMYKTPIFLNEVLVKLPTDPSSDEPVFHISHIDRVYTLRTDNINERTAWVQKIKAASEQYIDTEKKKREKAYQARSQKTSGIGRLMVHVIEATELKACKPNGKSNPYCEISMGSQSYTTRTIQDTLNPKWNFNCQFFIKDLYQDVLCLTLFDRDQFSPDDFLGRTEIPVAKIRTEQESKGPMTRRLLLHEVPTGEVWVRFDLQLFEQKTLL
UniProt O75449: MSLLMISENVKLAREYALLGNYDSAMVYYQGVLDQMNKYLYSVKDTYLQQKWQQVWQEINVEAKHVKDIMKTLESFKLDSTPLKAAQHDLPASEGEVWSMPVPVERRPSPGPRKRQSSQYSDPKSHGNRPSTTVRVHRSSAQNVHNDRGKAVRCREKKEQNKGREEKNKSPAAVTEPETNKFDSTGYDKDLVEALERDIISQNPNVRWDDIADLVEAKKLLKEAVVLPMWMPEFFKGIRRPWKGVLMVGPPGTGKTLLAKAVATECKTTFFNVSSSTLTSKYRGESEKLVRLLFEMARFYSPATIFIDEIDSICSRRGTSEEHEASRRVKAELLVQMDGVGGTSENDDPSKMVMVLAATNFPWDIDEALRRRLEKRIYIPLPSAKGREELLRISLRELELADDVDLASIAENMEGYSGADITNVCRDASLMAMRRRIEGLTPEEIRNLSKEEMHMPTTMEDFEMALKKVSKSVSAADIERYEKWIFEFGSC
UniProt Q9H1K1: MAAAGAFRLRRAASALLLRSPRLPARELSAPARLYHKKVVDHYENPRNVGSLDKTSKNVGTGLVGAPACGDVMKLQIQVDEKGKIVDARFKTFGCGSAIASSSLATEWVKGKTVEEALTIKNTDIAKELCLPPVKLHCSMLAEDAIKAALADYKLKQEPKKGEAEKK
UniProt P17535: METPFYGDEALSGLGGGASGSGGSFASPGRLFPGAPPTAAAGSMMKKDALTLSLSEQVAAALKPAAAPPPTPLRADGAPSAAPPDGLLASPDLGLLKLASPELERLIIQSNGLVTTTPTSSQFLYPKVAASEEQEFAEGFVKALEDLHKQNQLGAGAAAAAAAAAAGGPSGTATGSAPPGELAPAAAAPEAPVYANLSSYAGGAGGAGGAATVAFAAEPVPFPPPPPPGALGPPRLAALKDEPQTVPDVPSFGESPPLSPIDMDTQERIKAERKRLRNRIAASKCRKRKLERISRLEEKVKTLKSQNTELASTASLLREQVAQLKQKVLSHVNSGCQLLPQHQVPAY
UniProt P33947: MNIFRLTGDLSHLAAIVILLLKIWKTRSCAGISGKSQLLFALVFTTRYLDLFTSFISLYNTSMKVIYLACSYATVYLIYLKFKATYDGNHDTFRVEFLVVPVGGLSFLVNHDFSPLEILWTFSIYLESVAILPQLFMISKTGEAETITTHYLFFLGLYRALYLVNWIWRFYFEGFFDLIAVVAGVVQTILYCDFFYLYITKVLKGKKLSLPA
UniProt O95279: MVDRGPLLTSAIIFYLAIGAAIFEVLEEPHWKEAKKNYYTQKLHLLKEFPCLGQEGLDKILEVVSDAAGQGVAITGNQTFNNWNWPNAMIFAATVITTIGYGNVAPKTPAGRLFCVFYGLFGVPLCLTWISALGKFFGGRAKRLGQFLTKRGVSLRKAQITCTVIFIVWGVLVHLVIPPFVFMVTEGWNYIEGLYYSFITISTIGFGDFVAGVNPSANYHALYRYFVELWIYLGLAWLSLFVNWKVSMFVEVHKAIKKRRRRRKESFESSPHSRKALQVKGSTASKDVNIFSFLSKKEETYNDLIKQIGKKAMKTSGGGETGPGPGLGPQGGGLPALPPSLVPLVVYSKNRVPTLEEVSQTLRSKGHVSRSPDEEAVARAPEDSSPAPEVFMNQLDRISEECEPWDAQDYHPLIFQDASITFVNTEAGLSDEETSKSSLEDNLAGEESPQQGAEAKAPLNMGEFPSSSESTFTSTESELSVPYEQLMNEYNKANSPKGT

compound: NC(=O)c1cnc(N[C@@H]2CCCC[C@@H]2N)nc1Nc1cccc(-n2nccn2)c1; assay: log2 fold change, soluble protein after heating vs DMSO (PISA); higher = thermal stabilisation; K562 lysate, 10 uM; active = over 0.2 and 3.5 SD of the protein, either way, in both replicates (recomputed)
Procedure, shortened: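 Quantification was by TMTpro 16plex LC-MS/MS with equalised channel sums, applied to the supernatant after 21,000xg for 90 min. Samples were crude K562 extract at 1 mg/mL protein in PBS pH 7.4 with 1 mM MgCl2, treated with 10 μM compound for 30 min, heated for 3 min across 48°C-58°C, pooled and brought to 0.5% NP-40 at 4°C. Values are log-two fold changes in thermal stability relative to solvent controls, from duplicates.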

log2 fold change, inactive:
ITPKA (UniProt P23677) 0.021, KCTD15 (UniProt Q96SI1) -0.001, IPO4 isoform 2 (UniProt Q8TEX9) 0.012, IVNS1ABP (UniProt Q9Y6Y0) 0.014, KAT8 (UniProt Q9H7Z6) 0.01, KCMF1 (UniProt Q9P0J7) 0.027, ITGAV (UniProt P06756) 0.007, INTS14 (UniProt Q96SY0) -0.026, ISOC2 (UniProt Q96AB3) -0.045, KCTD5 (UniProt Q9NXV2) 0.098, ITPK1 (UniProt Q13572) -0.012, KATNAL1 (UniProt Q9BW62) 0.04, INTS9 (UniProt Q9NV88) 0.015, IQGAP1 (UniProt P46940) 0.01, IRGQ (UniProt Q8WZA9) 0.005, ISG15 (UniProt P05161) -0.013, IST1 (UniProt P53990) 0, INTS4 (UniProt Q96HW7) 0.032, KBTBD2 (UniProt Q8IY47) 0.009, KBTBD4 isoform 2 (UniProt Q9NVX7) -0.018, KARS1 (UniProt Q15046) 0.013, ITSN2 (UniProt Q9NZM3) 0.051, KATNA1 (UniProt O75449) -0.001, ITGA5 (UniProt P08648) -0.001, KCTD2 (UniProt Q14681) -0.116, ISCU (UniProt Q9H1K1) 0.035, KAT2A (UniProt Q92830) -0.032, JUND (UniProt P17535) 0.03, ITSN1 isoform 8 (UniProt Q15811) -0.019, INTS5 (UniProt Q6P9B9) -0.064, KANSL3 (UniProt Q9P2N6) -0.087, IQSEC1 (UniProt Q6DN90) -0.067, ITPA (UniProt Q9BY32) 0.01, INTS8 (UniProt Q75QN2) -0.035, KDELR2 (UniProt P33947) 0.009, IP6K1 (UniProt Q92551) -0.005, IRF3 (UniProt Q14653) 0.011, IWS1 (UniProt Q96ST2) 0.029, KCNK5 (UniProt O95279) -0.032
